These are yes or no findings as the source states them, for the method shown. Binding seen in cells or lysates may run through a third protein. A yes stands for co-enrichment or nearness to the bait. Other partners may have been found. For some of these results: No binding means not detected with the bait.

Sequences of proteins named here, by UniProt entry; tags and fusion partners are left off.
UniProt S8F360: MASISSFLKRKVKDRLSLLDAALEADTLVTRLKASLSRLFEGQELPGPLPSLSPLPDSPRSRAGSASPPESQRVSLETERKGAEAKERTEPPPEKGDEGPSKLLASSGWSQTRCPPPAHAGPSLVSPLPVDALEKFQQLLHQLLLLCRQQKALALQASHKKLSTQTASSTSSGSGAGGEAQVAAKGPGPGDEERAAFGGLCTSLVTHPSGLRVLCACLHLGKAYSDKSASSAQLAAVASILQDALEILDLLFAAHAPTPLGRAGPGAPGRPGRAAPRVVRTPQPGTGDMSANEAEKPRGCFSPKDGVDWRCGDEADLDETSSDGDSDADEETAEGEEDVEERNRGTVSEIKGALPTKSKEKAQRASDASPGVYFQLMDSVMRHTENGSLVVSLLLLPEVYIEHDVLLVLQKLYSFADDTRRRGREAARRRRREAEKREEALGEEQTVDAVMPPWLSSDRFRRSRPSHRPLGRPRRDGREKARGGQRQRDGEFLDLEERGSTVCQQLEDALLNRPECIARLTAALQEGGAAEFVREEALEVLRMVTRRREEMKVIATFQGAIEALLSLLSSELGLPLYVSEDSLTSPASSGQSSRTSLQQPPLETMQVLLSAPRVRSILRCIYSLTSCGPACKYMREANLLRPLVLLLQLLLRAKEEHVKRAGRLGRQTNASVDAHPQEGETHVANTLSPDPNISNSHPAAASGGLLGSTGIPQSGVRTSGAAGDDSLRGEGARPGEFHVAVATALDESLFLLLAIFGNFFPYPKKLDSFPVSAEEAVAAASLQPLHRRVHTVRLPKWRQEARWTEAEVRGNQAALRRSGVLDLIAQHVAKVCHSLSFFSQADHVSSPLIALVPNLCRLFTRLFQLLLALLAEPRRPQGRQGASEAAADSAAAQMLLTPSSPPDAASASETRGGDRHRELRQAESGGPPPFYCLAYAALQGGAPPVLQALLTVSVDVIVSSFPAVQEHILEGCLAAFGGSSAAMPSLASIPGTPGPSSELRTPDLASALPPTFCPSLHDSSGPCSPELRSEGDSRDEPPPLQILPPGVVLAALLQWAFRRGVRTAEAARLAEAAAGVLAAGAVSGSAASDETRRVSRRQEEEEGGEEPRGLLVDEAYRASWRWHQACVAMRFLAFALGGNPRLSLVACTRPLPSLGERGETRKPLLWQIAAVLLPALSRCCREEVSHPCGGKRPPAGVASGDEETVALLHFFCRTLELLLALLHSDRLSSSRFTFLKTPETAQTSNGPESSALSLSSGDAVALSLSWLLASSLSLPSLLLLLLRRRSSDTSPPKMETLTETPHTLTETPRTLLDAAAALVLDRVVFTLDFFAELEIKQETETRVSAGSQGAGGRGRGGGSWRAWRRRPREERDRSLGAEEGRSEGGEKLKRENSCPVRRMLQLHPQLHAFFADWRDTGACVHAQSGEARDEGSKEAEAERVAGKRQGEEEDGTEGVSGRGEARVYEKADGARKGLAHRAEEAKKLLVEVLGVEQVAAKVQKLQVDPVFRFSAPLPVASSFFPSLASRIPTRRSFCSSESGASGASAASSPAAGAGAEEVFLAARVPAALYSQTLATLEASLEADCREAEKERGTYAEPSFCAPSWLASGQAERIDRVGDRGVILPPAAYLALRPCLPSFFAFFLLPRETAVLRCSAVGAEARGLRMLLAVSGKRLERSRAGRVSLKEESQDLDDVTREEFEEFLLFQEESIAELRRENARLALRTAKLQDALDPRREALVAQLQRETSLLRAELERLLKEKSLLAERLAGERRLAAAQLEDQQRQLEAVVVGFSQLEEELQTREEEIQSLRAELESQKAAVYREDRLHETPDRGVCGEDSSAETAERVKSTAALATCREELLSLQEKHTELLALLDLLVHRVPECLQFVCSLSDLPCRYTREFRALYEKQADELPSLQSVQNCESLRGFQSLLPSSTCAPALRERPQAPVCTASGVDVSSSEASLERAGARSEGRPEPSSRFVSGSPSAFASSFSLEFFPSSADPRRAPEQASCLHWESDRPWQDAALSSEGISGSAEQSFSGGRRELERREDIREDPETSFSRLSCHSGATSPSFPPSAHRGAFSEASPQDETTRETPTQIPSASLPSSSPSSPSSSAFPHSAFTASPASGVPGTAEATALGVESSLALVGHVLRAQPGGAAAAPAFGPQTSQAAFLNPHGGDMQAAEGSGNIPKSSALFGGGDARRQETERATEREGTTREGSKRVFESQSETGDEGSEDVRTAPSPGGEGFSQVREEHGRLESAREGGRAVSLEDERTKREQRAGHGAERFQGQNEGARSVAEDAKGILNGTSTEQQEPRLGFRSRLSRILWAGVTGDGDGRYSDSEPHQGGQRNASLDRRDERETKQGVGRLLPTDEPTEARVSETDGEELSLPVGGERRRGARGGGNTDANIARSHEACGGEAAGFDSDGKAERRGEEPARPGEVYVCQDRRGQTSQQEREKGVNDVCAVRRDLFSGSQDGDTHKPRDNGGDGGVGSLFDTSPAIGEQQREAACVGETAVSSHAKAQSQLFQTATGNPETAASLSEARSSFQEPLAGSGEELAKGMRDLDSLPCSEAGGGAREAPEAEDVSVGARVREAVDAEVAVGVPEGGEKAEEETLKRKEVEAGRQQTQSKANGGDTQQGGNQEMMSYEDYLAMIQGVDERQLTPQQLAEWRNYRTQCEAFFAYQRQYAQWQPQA
UniProt S8F057: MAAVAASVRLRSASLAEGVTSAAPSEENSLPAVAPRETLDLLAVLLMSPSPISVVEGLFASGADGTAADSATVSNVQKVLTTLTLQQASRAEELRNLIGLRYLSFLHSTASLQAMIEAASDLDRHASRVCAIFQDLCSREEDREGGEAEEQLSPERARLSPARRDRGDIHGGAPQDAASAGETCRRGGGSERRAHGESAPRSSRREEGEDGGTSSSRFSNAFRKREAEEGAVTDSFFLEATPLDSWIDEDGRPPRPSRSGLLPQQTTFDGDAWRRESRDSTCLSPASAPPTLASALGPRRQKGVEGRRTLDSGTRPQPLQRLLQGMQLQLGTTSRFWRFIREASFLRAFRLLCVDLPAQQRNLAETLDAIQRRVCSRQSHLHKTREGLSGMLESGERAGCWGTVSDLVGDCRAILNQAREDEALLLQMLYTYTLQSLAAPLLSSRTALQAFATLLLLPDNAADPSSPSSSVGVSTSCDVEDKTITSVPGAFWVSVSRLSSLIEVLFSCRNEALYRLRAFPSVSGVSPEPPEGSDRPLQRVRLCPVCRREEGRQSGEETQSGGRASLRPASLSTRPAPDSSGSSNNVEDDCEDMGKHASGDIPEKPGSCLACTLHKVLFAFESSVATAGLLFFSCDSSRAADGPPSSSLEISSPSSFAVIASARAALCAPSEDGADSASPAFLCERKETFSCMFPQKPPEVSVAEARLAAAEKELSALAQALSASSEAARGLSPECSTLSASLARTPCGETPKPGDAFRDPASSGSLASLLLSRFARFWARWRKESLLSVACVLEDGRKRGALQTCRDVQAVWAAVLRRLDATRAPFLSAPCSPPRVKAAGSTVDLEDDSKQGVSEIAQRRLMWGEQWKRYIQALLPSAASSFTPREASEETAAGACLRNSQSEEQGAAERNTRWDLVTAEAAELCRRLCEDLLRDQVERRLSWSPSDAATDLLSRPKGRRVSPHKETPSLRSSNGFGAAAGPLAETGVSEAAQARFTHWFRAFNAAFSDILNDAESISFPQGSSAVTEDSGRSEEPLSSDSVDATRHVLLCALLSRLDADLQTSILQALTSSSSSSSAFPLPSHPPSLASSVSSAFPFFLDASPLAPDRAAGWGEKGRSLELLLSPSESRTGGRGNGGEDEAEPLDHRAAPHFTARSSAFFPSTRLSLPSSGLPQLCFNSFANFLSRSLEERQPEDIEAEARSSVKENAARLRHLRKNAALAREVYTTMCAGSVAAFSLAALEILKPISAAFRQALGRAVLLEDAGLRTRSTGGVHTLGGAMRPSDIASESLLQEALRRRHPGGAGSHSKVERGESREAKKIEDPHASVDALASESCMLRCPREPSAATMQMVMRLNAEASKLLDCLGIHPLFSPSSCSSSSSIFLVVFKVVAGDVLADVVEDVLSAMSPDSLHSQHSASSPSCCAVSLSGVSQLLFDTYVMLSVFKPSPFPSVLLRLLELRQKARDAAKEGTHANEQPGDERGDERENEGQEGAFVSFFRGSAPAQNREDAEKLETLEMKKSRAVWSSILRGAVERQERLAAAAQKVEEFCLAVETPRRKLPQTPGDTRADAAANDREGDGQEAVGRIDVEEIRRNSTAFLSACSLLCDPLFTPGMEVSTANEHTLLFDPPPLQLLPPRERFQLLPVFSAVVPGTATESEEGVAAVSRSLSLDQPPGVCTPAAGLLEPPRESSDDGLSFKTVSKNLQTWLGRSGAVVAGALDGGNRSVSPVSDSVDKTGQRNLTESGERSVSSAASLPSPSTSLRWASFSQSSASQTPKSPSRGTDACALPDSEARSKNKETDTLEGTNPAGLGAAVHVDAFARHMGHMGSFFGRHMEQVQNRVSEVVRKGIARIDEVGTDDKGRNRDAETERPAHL
UniProt A0A125YZG0: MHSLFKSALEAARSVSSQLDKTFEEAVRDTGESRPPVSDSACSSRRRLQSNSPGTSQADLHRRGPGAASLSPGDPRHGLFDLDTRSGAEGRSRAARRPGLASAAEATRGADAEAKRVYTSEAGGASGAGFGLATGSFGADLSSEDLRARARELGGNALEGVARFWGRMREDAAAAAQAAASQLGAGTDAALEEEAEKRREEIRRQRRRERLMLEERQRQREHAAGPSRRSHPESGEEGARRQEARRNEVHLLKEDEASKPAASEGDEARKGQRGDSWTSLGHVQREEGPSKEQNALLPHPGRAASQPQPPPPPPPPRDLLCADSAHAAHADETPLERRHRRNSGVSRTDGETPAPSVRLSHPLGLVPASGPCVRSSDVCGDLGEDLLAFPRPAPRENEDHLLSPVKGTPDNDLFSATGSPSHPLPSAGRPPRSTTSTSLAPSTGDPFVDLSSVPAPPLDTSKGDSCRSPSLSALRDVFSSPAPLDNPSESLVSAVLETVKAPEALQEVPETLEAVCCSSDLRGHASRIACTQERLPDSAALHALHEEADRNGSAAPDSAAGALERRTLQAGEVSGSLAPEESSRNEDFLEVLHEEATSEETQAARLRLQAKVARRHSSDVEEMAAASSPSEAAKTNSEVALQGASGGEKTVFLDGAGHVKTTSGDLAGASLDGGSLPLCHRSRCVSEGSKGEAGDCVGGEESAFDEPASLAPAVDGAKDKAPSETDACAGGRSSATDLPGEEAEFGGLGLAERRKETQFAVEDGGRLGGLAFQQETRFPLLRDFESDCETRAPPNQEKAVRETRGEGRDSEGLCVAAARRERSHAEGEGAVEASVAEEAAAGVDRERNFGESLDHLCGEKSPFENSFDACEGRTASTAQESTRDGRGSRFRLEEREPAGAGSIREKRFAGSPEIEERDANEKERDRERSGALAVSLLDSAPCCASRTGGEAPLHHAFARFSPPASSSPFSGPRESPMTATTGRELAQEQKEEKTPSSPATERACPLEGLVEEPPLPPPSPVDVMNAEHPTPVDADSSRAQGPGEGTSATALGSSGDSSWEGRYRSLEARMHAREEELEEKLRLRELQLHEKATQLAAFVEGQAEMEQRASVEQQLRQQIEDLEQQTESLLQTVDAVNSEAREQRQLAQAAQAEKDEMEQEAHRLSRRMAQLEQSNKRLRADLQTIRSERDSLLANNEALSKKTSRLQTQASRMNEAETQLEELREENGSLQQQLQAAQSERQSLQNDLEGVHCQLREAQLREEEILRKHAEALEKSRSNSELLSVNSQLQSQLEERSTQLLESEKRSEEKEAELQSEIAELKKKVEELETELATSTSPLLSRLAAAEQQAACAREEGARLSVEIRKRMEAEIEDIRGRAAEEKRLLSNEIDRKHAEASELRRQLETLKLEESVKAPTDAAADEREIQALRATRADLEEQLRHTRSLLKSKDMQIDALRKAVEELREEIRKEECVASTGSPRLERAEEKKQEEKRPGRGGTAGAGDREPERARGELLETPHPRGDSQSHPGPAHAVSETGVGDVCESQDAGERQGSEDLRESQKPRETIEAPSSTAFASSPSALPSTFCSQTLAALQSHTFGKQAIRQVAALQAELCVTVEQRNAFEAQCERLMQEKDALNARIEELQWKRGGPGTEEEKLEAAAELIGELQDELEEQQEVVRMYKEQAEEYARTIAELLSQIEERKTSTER

For test [1], the target named is TGME49_289120^myc (Toxoplasma gondii (endogenous in RH tachyzoites)) (UniProt S8F360). Description: affinity purification with mass spectrometry; myc-tagged bait (TGME49_289120^myc or TgGlp1^myc) isolated on α-Myc magnetic beads; extraction in PBS with 263 mM NaCl, 1% Triton X-100; pull-down from the parental strain as control; SAINT analysis.
Test [2] has as its target TgGlp1^myc (Toxoplasma gondii (endogenous in RH tachyzoites)). The test is described as above.
Test [3] concerns the target TgCog8^AID-HA (Toxoplasma gondii (endogenous in RH tachyzoites)). Description: affinity purification with mass spectrometry; TgCog8^AID-HA complexes from dividing tachyzoites isolated on α-HA magnetic beads; extraction in PBS with 263 mM NaCl, 1% Triton X-100; pull-down from the parental strain as control; SAINT analysis.

For the molecule TgCog1 (from UniProt S8F057 1-1878), the binding result in test [1] is reported as “binds”; in test [2] it was “no binding”.
In the case of “TgGlp1 (Golgi protein 1) (from UniProt A0A125YZG0 1-1711)”, the binding entry in test [1] is reported as “no binding”.
For the molecule “TgUlp1 (Uso1-like protein 1) (from UniProt S8F360 1-2703)”, the binding result in test [2] is recorded as “no binding”.

B1: TgCog7 (protein, UniProt S8FAE0 1-1223)
chain: MASPVPKPPEGALPGSPLPSSNSSSSASLQSSAVSAAFNALSAPTFSAGAWLDACIERSLEQQAFEAPPVASSSLASSPETETARLADRLESTLESVLAEVQRRIATTFEALDTKSQDLSSAAPTYVKQVEELSGKLVDARRTVDDALKALSCVDFEHQESLRRLAALDALRRHFHRCRRVLLVLHQWDFRVGEIELLLHSFQHQETPLIANPASSVDGTPFHPHQPSQGQGLSDDADASTFSSSSFSSSASSASSASSASSSSSSSAFEHAASTARLRSLAQAAMHAAALKNAVQELKAFGEFSARVRAAELLEKRVVVVTRSLMRSAFLSGDAESLRVAMNISVTLNHSAQLQQELSKCFGDQLRQAWLATWARTPAGRRRREAEVAAGACWALAPNERLHGERELYAEEQGDGFPREEADACGDDASVEKEQRTIGEPEALLLYFEEFTRLLEERSSLLRLFADELSQAEIRALRASSDDASSTSSCSSAAHSASSSSRSADPQGPFGCGRRGEEETSGVAGAASQAPHRPLRLHRTASRLHTRVWEETLLLCLKVGGEAPNAEVEAFLAAGGADLEEDDEERMARIEKLLQTYDMGFTLLSATPVVAESEPHIPQLWRKISSTCLFFPALLLRQFNAALWKSSRRFFLQDAPSVRPFDKRQAPSQVVMELEGRLDRTLQRLSSPALAALSPGAFHLCLAPCLLSAVDDAVAEFLSSLSPVLQTFAHTIQYKTQSIQDTQNRERERDLPARGNAGDFLPLDVLPTSLPFDLSLLNACMQQYLLFASAQQKLAQGAAVVFDEALTGHRRHSRFNVYLRELTNLHPDLLVYPSPSAVAHSASLLPSSCSSSFSAPPLPSVLPASFAAYTKLRHASRALVLLACSAPCSLFLHRFYPLCWGAISVSSSAQRAESLLREQRESINGQESKAILPSSVSTAAGEFFLQLLPHLEVAAAGAKGSEKRETEVESSDESLIAGLLSVVFTSFCRALLVADLPTRLTKEEPVQRGELRENMLLQLQADARYLASLSRSLGYDPEEESSFLFFETESGEGSEKARDAQADKQDQQTKDEERESSDLGETKKEEKDEAVRQERKRGPTWMIGLLLRGLDALLGTAEGETSAEPSAAKREEIKNNADENSSSLGCLGAFEAHLRRKFAREKNETKGESPSDSERVRAARAVAAAALESPSSDLCKSEKEKEDEEVTLVWAVLCQLGVFPSPL
With B1, the figures for the binding entry in test [1], in test [2] and in test [3] were “binds”, “no binding” and “binds”, respectively.

B2: TgCog6 (protein, UniProt S8F0D4 1-1298)
chain: MESSSGSISLGEAAASAAPLPCDVPSQSPPPFGVSAPSRAAGVSLPTSSATPVSPVLHTSSLSSSHSYKSLSRSAEPAAKSSVSASKLHPLSREVARILSHPFLEAPFLPEALACLSSCIDAGDQTAVSADSKTCGDSALSADSSLTPSQSSGLERPSFLGPLIYREKLRIHQEALGAFAPIRRQIVEVAEQAQTLSRMCSQSSSQLRRSRAQLAGLLCKVEGLREQQRALQSRQRLCQLLLDALQLPARLLEALTGRRRACVDLPETAHGDKTALAGAAKGPKQGLGPEGPGEGDSKEDLQLDSRFFEALKEVEKIRKRALKLQAQTSMADRDISEEHQSCMQNASLANRSDRMLFGGAPPRLADDVLQHTADLREAAFERLYLWMQRIFKSACVGGVNAKSRQDRRSDRSDHSGGQSSRHERETPSGDSETLDAVQQVEAFAAALATAGLARKWEREGLARAGETQSLTTVLGVNDEPSLLFRGFQALEDRHAYLQHSVQEFSRVRSQLIIDAFWGSSLESEAAPPARASTGPVSGLLARTRDLAQHWRKGGVFGGNAGLGGGSPGDADGRAAAEAANGLALGASFDTVCRAEPVEFLRATLQYVVHAVAAERAVIRGLLGLLPREDTQPPGGASGGIGALGSLGLETPGGRSKCLAEETDSLGGAERRQTEPVSGLDVEDPAKEAREATVETREGARRHLDAQEWVLDENGRPGALPDGPSAEGKEGRGGDLGAPDRACGGGEPSGSCGEMLGVREALRGTRLLQETTAGMSRPLRATIEQAFSMIRASATAPGAAGGTRLQQQHVLGVLLMVRMLDVYAALLRCLLVFDMGLASATRHPQEPKGGPGPQPVPGEGPPENVREPSVSDPTYPSPAARGRLETRTGNAVVETSFTVPELVLCCEEYAEKGEELFLSLWERQVVRAASSSTAAQLSSVLLSGRLSPGVPGTEGSAGLGGEGELIATEGGAFLELTGRLREALEILNAPVISVEEENELWLLASGAAAAASRRSRPMAAGGLPAWADTPVVTNLVRDRDASVWGTEVRRRSHLAGRRSRITGMRAFEDLSSEACEGGEGEQASEELHAWVEASVAPLLNFCRQEAQRFSDAGETAVCLINAYASVQEPLRRFRVCRSYLRVLAELLDQQMVKLIEVESGKILAYLGLADRLEAVRRAVEREKGRLGVAGPDALPQVGDGKAPLQVGTEQSGDAGPDDEVLLHKEGLVKFFGEFYVALYGLSALNLDYVDRLMHWHLRSHAKKAVLNAVLQAYSEIYNHVSHLRVATHTPGDVALLLDV
In the case of B2, the figures for the binding entry in test [1], in test [2] and in test [3] were “binds”, “no binding” and “binds”, respectively.

B3: TgCog5 (protein, UniProt S8ESF4 1-1471)
chain: MEESRRRRSSAGERAEPSLDDSGDVEIGDLLHCLDSATVDLVHHSLPSEVLSRSHLPSQKETVPFQSTKHARALASPALKSDALNVAVYVHRVVGRGDEASSAHAAAAVKALDGALERLDEEMKKAAMFSQGERLGYENDTEIKHRRRHSSFFEGDAGRRSGENEDVRRHAHGGVPALPALLRLLGSDGEKGEGRRLRGEELREKEEQVLLALLHDSDEEKEEERGEKRQLEGDCGLVADALDGTSFIEQVKEEIQDICRESKQLHTEADRMYQSVEEEILVASRLLLLQEVVRECLHFVSTFKRLLKEESPSAKAALVKKLLALLREPHRLSASCSAAVCTPGDERGIQTGAPSAGETEKVVALGDLQSLSHCVSLVQREAAHLRNAARQQLLQAVEQGSSLSLASALDVFFLLDQLWEQVEAVLRTLVAGVCTPVATQTLQNEASRGAVSACTRVGKGSLPALLCRSDFESNLAAETESFFSRLEEGLKRASLVDQVLAVGEDPVTRQPYTAFLVASGFASTLSDEVWRASSVHFSAVLRQVGAFGPLPPSLLAALASAVSQRTQRRRRGPARASEERQGSTEEGEENRERRDTGDNEEEKEEEEKREEREAELSRFAASLAPPQRALVEATPLLSFLLLAFLRRCEEISRAGVLSKAPSESQTGVLLGTISPLRQVYIHLLAARLDGVLSSLFSTKSFSQVRLFLRRLPSAFPLSLLLPPVGSTASGSSSGEEETCREAFSRLLQAVDPVVRLPASPDIDALVSAAFGELERARVSTDAELTRQAADVVEETLESLVLLCLCQLHRDVELEPPVLVDASGKQLLRRLPAASAARVRVSKVFALFAGVEAAMKTVLEENPHFLPLLQAPSEERSERGSFSFEESLRGFQASPCVSGEFFGDAEEAEHALFLERLYSQKPSLLQWNTFREVAAVKRRLLAPLFSSVERAAVDGCLQRIVEELPASLSSPGSKAADTRERTAARGEMAATEDVEQLHALCELERLLCHVQQQYLCLLPPASLVAPLSSLSLAVLETLLSLACVCEAGDERARAFVAAVVARGEVLLSAFWTDFHKHVRVGSDMLRNVRRLLFADSPFLLHEVLTLLPQQEPWLCSENGTFSSSSSASSSSCLASPASLVTSSLPPLLVAVHLLYRLPAQSHSQQSPAGPPACLRLPGGAPELARRLSAYLRRERREPYGEGEEELETEHEETVQKLRRDLRHVVTLWGKGEESKESTGDGREGEERREREERRERRKARGWMHRDREEEKREDLKLLTQVARLLNAAVNGGREVAEGNAREIVTSAHEAPEKSTPASSLEQTPLSAENAVPVNPSPFSSSASPPSPFSASPCSSSAPALSSSSSLSSSLPSLSVQAGEAAQEQKAGARLPGFPKVHSNSLQSPSLSLNGVGEPQNSWGQTMGDREDPKAAQVPALGASPYLGWEAEKEREQEPHARTESSVPWHPPPPPCL
In the case of B3, the binding entry is “binds” in test [1], “no binding” in test [2] and “binds” in test [3].

For the origin of these results see PMC10746232.
